From the supplement of paper PMC10849652
The list shows a part of the results.

Sequences of proteins named here, by UniProt entry; tags and fusion partners are left off. A change or cut given only in a name is not applied to a line headed by its entry.
UniProt P38646: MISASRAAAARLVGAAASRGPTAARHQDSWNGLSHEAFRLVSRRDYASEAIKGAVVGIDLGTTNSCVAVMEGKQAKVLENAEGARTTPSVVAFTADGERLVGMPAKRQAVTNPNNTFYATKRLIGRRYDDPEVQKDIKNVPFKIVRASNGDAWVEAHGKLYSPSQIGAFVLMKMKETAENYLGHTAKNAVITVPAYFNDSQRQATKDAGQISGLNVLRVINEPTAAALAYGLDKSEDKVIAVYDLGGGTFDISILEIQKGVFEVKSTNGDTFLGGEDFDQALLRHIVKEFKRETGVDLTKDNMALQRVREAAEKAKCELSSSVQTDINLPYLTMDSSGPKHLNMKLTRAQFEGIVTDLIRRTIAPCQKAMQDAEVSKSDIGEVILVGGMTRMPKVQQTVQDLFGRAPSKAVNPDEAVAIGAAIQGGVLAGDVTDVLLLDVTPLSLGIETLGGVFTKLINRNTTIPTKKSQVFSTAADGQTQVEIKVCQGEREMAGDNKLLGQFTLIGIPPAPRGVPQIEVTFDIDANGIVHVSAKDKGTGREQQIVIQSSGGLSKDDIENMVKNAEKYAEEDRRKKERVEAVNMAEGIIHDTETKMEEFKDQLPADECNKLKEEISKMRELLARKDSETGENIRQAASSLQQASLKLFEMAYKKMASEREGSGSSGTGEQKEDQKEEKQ
UniProt O00425, whole entry, looked up: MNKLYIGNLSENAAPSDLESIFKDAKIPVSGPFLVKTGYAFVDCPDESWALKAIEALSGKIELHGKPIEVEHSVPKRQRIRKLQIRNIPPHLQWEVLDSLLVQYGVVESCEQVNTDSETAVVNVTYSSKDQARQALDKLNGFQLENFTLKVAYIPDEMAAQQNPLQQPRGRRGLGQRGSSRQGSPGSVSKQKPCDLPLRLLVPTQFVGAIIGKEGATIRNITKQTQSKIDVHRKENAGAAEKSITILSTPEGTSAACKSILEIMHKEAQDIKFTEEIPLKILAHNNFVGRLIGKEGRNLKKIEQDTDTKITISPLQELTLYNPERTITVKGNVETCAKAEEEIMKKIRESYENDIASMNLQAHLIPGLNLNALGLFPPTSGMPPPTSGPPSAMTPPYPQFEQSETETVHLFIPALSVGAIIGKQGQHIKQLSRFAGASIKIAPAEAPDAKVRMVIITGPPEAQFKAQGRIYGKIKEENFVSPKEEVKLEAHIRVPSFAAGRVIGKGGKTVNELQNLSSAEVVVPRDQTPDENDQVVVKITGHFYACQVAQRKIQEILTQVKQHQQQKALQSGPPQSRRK
UniProt Q9NX55: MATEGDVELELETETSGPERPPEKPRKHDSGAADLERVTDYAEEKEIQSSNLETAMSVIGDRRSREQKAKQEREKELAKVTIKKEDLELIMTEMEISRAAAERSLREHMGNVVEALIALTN
UniProt O43719: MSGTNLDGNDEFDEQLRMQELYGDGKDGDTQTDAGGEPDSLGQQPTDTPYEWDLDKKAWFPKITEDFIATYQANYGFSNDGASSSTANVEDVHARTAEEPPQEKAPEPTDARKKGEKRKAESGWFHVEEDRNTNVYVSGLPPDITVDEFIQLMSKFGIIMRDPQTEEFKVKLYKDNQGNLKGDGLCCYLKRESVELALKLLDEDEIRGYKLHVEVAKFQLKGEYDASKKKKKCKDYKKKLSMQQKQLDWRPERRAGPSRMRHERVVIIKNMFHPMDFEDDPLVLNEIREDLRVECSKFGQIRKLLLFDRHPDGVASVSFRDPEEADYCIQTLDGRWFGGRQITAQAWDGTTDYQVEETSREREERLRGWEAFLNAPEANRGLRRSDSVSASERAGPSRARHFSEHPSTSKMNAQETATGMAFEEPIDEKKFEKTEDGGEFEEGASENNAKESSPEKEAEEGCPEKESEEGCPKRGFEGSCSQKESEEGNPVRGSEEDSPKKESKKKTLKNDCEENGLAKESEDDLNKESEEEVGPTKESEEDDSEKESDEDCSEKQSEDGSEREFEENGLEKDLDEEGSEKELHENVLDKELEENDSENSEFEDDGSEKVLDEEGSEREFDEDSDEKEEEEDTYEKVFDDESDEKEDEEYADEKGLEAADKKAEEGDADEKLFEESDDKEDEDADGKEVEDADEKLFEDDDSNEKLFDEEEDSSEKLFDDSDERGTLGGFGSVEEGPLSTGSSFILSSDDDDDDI
UniProt P20839, whole entry, looked up: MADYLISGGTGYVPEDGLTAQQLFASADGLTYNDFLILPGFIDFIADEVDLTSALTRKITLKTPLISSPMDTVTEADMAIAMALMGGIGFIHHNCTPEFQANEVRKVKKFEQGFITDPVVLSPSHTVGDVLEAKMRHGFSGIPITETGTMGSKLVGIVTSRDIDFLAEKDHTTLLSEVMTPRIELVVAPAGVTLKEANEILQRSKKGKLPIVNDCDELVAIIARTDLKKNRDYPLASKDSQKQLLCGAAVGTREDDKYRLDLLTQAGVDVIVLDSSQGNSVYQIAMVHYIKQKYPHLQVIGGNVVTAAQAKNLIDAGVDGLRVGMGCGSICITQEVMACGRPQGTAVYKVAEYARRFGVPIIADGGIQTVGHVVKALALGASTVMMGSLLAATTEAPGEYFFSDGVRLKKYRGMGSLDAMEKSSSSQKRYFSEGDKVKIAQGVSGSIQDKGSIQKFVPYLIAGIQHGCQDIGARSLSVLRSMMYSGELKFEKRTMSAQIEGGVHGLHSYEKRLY
UniProt O43464: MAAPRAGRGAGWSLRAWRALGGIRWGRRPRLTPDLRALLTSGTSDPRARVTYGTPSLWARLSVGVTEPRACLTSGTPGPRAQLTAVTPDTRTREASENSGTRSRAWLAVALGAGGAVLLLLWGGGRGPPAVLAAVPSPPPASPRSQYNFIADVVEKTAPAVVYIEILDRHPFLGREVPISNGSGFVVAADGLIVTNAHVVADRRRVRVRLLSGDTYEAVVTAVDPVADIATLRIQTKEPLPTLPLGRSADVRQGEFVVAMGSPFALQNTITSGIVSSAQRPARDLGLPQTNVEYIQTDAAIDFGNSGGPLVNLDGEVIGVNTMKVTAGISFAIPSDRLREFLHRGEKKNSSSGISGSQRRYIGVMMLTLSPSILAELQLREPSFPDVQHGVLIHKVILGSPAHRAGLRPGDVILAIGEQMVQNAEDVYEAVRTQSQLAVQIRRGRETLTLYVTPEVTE
UniProt Q9NZL4: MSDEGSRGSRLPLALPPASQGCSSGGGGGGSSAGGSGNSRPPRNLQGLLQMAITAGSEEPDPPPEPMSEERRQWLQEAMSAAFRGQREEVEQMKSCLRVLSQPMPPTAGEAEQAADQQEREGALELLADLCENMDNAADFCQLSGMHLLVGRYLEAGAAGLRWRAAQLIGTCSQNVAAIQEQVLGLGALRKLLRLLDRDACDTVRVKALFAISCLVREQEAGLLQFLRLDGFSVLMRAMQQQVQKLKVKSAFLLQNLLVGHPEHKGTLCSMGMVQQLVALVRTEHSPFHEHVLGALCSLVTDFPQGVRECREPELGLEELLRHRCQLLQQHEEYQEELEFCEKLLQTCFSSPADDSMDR
UniProt P15260: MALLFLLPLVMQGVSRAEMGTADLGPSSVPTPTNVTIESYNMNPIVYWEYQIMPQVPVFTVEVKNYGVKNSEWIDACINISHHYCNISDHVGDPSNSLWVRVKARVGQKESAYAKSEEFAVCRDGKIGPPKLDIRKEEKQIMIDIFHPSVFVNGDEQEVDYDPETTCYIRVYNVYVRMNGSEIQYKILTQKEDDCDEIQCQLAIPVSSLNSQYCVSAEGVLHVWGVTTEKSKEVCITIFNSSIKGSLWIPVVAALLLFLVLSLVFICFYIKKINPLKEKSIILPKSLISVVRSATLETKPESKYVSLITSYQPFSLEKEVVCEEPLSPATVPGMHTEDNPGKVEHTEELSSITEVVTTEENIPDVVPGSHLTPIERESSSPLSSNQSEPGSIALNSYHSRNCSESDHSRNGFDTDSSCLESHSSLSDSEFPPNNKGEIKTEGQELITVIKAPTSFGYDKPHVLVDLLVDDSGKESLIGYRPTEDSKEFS
UniProt Q96T52: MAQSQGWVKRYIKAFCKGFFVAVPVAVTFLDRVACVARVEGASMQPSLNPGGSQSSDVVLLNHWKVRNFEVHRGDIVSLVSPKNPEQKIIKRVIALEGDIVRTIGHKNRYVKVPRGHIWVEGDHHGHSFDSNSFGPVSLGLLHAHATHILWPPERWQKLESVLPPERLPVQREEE

Tests used:
Assay in all cases: log2 fold change, soluble protein after heating vs DMSO (PISA); higher = thermal stabilisation; K562 lysate, 10 uM; active = over 0.2 and 3.5 SD of the protein, either way, in both replicates (recomputed)
nilotinib = compound: Cc1cn(-c2cc(NC(=O)c3ccc(C)c(Nc4nccc(-c5cccnc5)n4)c3)cc(C(F)(F)F)c2)cn1 [nilotinib]
How it was run: (§1)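 To prepare the extract, K562 pellets were dounce-homogenised in PBS pH 7.4 with 1 mM MgCl2, giving crude material at 1 mg/mL protein. This was treated with 10 μM compound for 30 min, then heated in aliquots for 3 min over 48°C-58°C before pooling and addition of NP-40 to 0.5% at 4°C. Centrifugation at 21,000xg for 90 min left soluble protein in the supernatant, which TMTpro 16plex LC-MS/MS quantified with equalised channel sums. Results are log-two fold changes in thermal stability compared with solvent controls, from duplicates.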

[1] = compound: Cc1nc(Nc2n[nH]c3c2CN(C(=O)N[C@H](CN(C)C)c2ccccc2)C3(C)C)c2sccc2n1
How it was run: as §1

dasatinib = compound: Cc1nc(Nc2ncc(C(=O)Nc3c(C)cccc3Cl)s2)cc(N2CCN(CCO)CC2)n1 [dasatinib]
How it was run: as §1

[2] = compound: Cc1ncc(-c2ccnc(Nc3ccc(S(C)(=O)=O)cc3)n2)n1C(C)C
How it was run: as §1

[3] = compound: Cn1cc(-c2ccc3c(c2)CCN3C(=O)Cc2cccc(C(F)(F)F)c2)c2c(N)ncnc21
How it was run: as §1

quisinostat = compound: Cn1cc(CNCC2CCN(c3ncc(C(=O)NO)cn3)CC2)c2ccccc21 [quisinostat]
How it was run: as §1

tipifarnib = compound: Cn1cncc1[C@@](N)(c1ccc(Cl)cc1)c1ccc2c(c1)c(-c1cccc(Cl)c1)cc(=O)n2C [tipifarnib]
How it was run: as §1

[4] = compound: NC(=O)Nc1cc(-c2cccc(F)c2)sc1C(=O)N[C@H]1CCCNC1
How it was run: as §1

[5] = compound: NC(=O)c1cnc(N[C@@H]2CCCC[C@@H]2N)nc1Nc1cccc(-n2nccn2)c1
How it was run: as §1

[6] = compound: NC1(c2ccc(-c3nc4ccn5c(=O)[nH]nc5c4cc3-c3ccccc3)cc2)CCC1
How it was run: as §1

[7] = compound: NCC(=O)Nc1ccc(-n2nc(C(F)(F)F)cc2-c2ccc3c(ccc4ccccc43)c2)cc1
How it was run: as §1

vorinostat = compound: O=C(CCCCCCC(=O)Nc1ccccc1)NO [vorinostat]
How it was run: as §1

silmitasertib = compound: O=C(O)c1ccc2c(c1)nc(Nc1cccc(Cl)c1)c1ccncc12 [silmitasertib]
How it was run: as §1

[8] = compound: O=C1NC(=O)C(c2cnc3ccccn23)=C1c1cn2c3c(cc(F)cc13)CN(C(=O)N1CCCCC1)CC2
How it was run: as §1

entospletinib = compound: c1cn2cc(-c3ccc4cn[nH]c4c3)nc(Nc3ccc(N4CCOCC4)cc3)c2n1 [entospletinib]
How it was run: as §1

## HSPA9 (UniProt P38646)
nilotinib
  log2 fold change: inactive: -0.009
[1]
  log2 fold change: inactive: 0.006
dasatinib
  log2 fold change: inactive: 0.018
[2]
  log2 fold change: inactive: 0.007
[3]
  log2 fold change: inactive: -0.006
quisinostat
  log2 fold change: inactive: 0.059
tipifarnib
  log2 fold change: inactive: 0.019
[4]
  log2 fold change: inactive: -0.011
[5]
  log2 fold change: inactive: 0.014
[6]
  log2 fold change: inactive: 0.015
[7]
  log2 fold change: inactive: 0.015
vorinostat
  log2 fold change: inactive: 0.055
silmitasertib
  log2 fold change: inactive: -0.004
[8]
  log2 fold change: inactive: -0.009
entospletinib
  log2 fold change: inactive: -0.015

## IGF2BP3 (UniProt O00425)
nilotinib
  log2 fold change: inactive: -0.046
[1]
  log2 fold change: inactive: 0.008
dasatinib
  log2 fold change: inactive: -0.035
[2]
  log2 fold change: inactive: 0.006
[3]
  log2 fold change: inactive: 0.063
quisinostat
  log2 fold change: inactive: -0.045
tipifarnib
  log2 fold change: inactive: 0.008
[4]
  log2 fold change: inactive: 0.039
[5]
  log2 fold change: inactive: 0.013
[6]
  log2 fold change: inactive: -0.027
[7]
  log2 fold change: inactive: -0.012
vorinostat
  log2 fold change: active: -0.305
silmitasertib
  log2 fold change: inactive: 0.025
[8]
  log2 fold change: inactive: 0
entospletinib
  log2 fold change: inactive: 0.006

## HYPK (UniProt Q9NX55)
nilotinib
  log2 fold change: inactive: 0.074
[1]
  log2 fold change: inactive: -0.032
dasatinib
  log2 fold change: inactive: 0.006
[2]
  log2 fold change: inactive: 0.032
[3]
  log2 fold change: inactive: 0.009
quisinostat
  log2 fold change: inactive: 0.085
tipifarnib
  log2 fold change: inactive: 0.041
[4]
  log2 fold change: inactive: 0.008
[5]
  log2 fold change: inactive: -0.007
[6]
  log2 fold change: inactive: 0.01
[7]
  log2 fold change: inactive: -0.009
vorinostat
  log2 fold change: inactive: 0.16
silmitasertib
  log2 fold change: inactive: -0.026
[8]
  log2 fold change: inactive: -0.031
entospletinib
  log2 fold change: inactive: -0.086

## HTATSF1 (UniProt O43719)
nilotinib
  log2 fold change: inactive: -0.036
[1]
  log2 fold change: inactive: 0.021
dasatinib
  log2 fold change: inactive: 0.024
[2]
  log2 fold change: inactive: -0.006
[3]
  log2 fold change: inactive: -0.002
quisinostat
  log2 fold change: inactive: 0
tipifarnib
  log2 fold change: inactive: -0.007
[4]
  log2 fold change: inactive: -0.022
[5]
  log2 fold change: inactive: 0.011
[6]
  log2 fold change: inactive: 0.003
[7]
  log2 fold change: inactive: -0.014
vorinostat
  log2 fold change: inactive: -0.002
silmitasertib
  log2 fold change: inactive: 0.008
[8]
  log2 fold change: inactive: -0.043
entospletinib
  log2 fold change: inactive: -0.015

## IMPDH1 isoform 6 (UniProt P20839)
nilotinib
  log2 fold change: inactive: 0.008
[1]
  log2 fold change: inactive: -0.034
dasatinib
  log2 fold change: inactive: -0.033
[2]
  log2 fold change: inactive: 0.015
[3]
  log2 fold change: inactive: -0.006
quisinostat
  log2 fold change: inactive: -0.121
tipifarnib
  log2 fold change: inactive: -0.017
[4]
  log2 fold change: inactive: -0.007
[5]
  log2 fold change: inactive: -0.008
[6]
  log2 fold change: inactive: -0.012
[7]
  log2 fold change: inactive: 0.029
vorinostat
  log2 fold change: active: -0.897
silmitasertib
  log2 fold change: inactive: -0.003
[8]
  log2 fold change: inactive: 0.004
entospletinib
  log2 fold change: inactive: 0.023

## HTRA2 (UniProt O43464)
nilotinib
  log2 fold change: inactive: -0.005
[1]
  log2 fold change: inactive: 0.015
dasatinib
  log2 fold change: inactive: 0.014
[2]
  log2 fold change: inactive: 0
[3]
  log2 fold change: inactive: -0.004
quisinostat
  log2 fold change: inactive: -0.033
tipifarnib
  log2 fold change: inactive: 0.009
[4]
  log2 fold change: inactive: -0.006
[5]
  log2 fold change: inactive: 0.03
[6]
  log2 fold change: inactive: 0.005
[7]
  log2 fold change: inactive: 0.01
vorinostat
  log2 fold change: inactive: 0.128
silmitasertib
  log2 fold change: inactive: -0.032
[8]
  log2 fold change: inactive: -0.003
entospletinib
  log2 fold change: inactive: -0.041

## HSPBP1 (UniProt Q9NZL4)
nilotinib
  log2 fold change: inactive: -0.011
[1]
  log2 fold change: inactive: 0
dasatinib
  log2 fold change: inactive: -0.051
[2]
  log2 fold change: inactive: 0.012
[3]
  log2 fold change: inactive: -0.015
quisinostat
  log2 fold change: inactive: -0.045
tipifarnib
  log2 fold change: inactive: 0.002
[4]
  log2 fold change: inactive: 0.017
[5]
  log2 fold change: inactive: 0.006
[6]
  log2 fold change: inactive: -0.01
[7]
  log2 fold change: inactive: 0.013
vorinostat
  log2 fold change: inactive: -0.039
silmitasertib
  log2 fold change: inactive: 0.005
[8]
  log2 fold change: inactive: -0.002
entospletinib
  log2 fold change: inactive: 0.009

## IFNGR1 (UniProt P15260)
nilotinib
  log2 fold change: inactive: 0.227
[1]
  log2 fold change: inactive: -0.068
dasatinib
  log2 fold change: inactive: -0.018
[2]
  log2 fold change: inactive: 0.133
[3]
  log2 fold change: inactive: -0.125
quisinostat
  log2 fold change: inactive: 0.047
tipifarnib
  log2 fold change: inactive: -0.08
[4]
  log2 fold change: inactive: 0.013
[5]
  log2 fold change: inactive: 0.084
[6]
  log2 fold change: inactive: -0.101
[7]
  log2 fold change: inactive: 0.15
vorinostat
  log2 fold change: inactive: 0.147
silmitasertib
  log2 fold change: inactive: -0.006
[8]
  log2 fold change: inactive: 0.046
entospletinib
  log2 fold change: inactive: -0.042

## IMMP2L (UniProt Q96T52)
nilotinib
  log2 fold change: inactive: -0.059
[1]
  log2 fold change: inactive: 0.067
dasatinib
  log2 fold change: inactive: -0.065
[2]
  log2 fold change: inactive: 0
[3]
  log2 fold change: inactive: 0.005
quisinostat
  log2 fold change: inactive: -0.004
tipifarnib
  log2 fold change: inactive: -0.038
[4]
  log2 fold change: inactive: 0.043
[5]
  log2 fold change: inactive: 0.042
[6]
  log2 fold change: inactive: 0.193
[7]
  log2 fold change: inactive: 0.047
vorinostat
  log2 fold change: inactive: -0.095
silmitasertib
  log2 fold change: inactive: -0.183
[8]
  log2 fold change: inactive: -0.064
entospletinib
  log2 fold change: inactive: 0.059
